Results deposited as PubChem BioAssay AID1259254 (NCATS, 2017)

Screen: 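Genome-wide screen for genes that prevent DNA re-replication in cancer cells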 (primary screen)
Cells: human HCT116 colorectal cancer cells
Knock-down reagent: single siRNA against human genes
Duration: 3 days
Measured: 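Nuclei stained with Hoechst and imaged; cell-cycle phase assigned by DNA content; G2 share scaled per plate, non-targeting siRNA 0%, GMNN siRNA 100%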
Reading the numbers: G2 robust z-score: higher = more G2 cells, more excess DNA replication
Rule for the call: 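Active siRNAs have a G2 robust z of 5 or more median absolute deviations over the median, which in these data means about 38% or higher of GMNN control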
Here is a random part of about 59,000 reagents tested. In the full data, about 1,550 (2.6%) were called active. 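G2 share is only a proxy for re-replication; each gene was hit by three separate siRNAs, and active genes were retested.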 Reagents against one gene are numbered here. Further read-outs or replicates are left out here. The record does not give: the amount of reagent.

gene knocked down,siRNA no.,G2 robust z-score,outcome
HK2 (GeneID 3099),1,-0.296,inactive
HK2 (GeneID 3099),2,-0.515,inactive
HK2 (GeneID 3099),3,-0.389,inactive
ZNF839P4 (GeneID 389906),1,2.2,inactive
ZNF839P4 (GeneID 389906),2,-0.431,inactive
ZNF839P4 (GeneID 389906),3,0.0823,inactive
ZNF839P4 (GeneID 389906),4,-0.302,inactive
ZNF839P4 (GeneID 389906),5,0.599,inactive
ZNF839P4 (GeneID 389906),6,1.33,inactive
ZNF839P4 (GeneID 389906),7,2.12,inactive
ZNF839P4 (GeneID 389906),8,-0.791,inactive
ZNF839P4 (GeneID 389906),9,1.99,inactive
MID1 (GeneID 4281),1,-1.09,inactive
MID1 (GeneID 4281),2,-0.626,inactive
MID1 (GeneID 4281),3,0.961,inactive
CARD14 (GeneID 79092),1,0.278,inactive
CARD14 (GeneID 79092),2,-0.328,inactive
CARD14 (GeneID 79092),3,5.76,active
PLA2G12A (GeneID 81579),1,-0.349,inactive
PLA2G12A (GeneID 81579),2,-0.787,inactive
PLA2G12A (GeneID 81579),3,-1.22,inactive
LMBR1 (GeneID 64327),1,1.81,inactive
LMBR1 (GeneID 64327),2,1.58,inactive
LMBR1 (GeneID 64327),3,-0.327,inactive
ALYREF (GeneID 10189),1,-0.461,inactive
ALYREF (GeneID 10189),2,1.57,inactive
ALYREF (GeneID 10189),3,0.249,inactive
LDLRAD4 (GeneID 753),1,-0.367,inactive
LDLRAD4 (GeneID 753),2,1.71,inactive
LDLRAD4 (GeneID 753),3,-0.609,inactive
NATD1 (GeneID 256302),1,0.664,inactive
NATD1 (GeneID 256302),2,0.252,inactive
NATD1 (GeneID 256302),3,0.981,inactive
NT5C3A (GeneID 51251),1,2.49,inactive
NT5C3A (GeneID 51251),2,0.14,inactive
NT5C3A (GeneID 51251),3,-0.451,inactive
HP1BP3 (GeneID 50809),1,0.979,inactive
HP1BP3 (GeneID 50809),2,0.275,inactive
HP1BP3 (GeneID 50809),3,-0.787,inactive

12 of these entries, set out differently.
ZNF839P4 (GeneID 389906) #1 → G2 robust z-score = 2.2; outcome = inactive
ZNF839P4 (GeneID 389906) #2 → G2 robust z-score = -0.431; outcome = inactive
ZNF839P4 (GeneID 389906) #3 → G2 robust z-score = 0.0823; outcome = inactive
ZNF839P4 (GeneID 389906) #4 → G2 robust z-score = -0.302; outcome = inactive
ZNF839P4 (GeneID 389906) #5 → G2 robust z-score = 0.599; outcome = inactive
ZNF839P4 (GeneID 389906) #6 → G2 robust z-score = 1.33; outcome = inactive
ZNF839P4 (GeneID 389906) #7 → G2 robust z-score = 2.12; outcome = inactive
ZNF839P4 (GeneID 389906) #8 → G2 robust z-score = -0.791; outcome = inactive
ZNF839P4 (GeneID 389906) #9 → G2 robust z-score = 1.99; outcome = inactive
MID1 (GeneID 4281) #1 → G2 robust z-score = -1.09; outcome = inactive
MID1 (GeneID 4281) #2 → G2 robust z-score = -0.626; outcome = inactive
MID1 (GeneID 4281) #3 → G2 robust z-score = 0.961; outcome = inactive

More reagents follow.
gene knocked down,siRNA no.,G2 robust z-score,outcome
IFT20 (GeneID 90410),1,-0.644,inactive
IFT20 (GeneID 90410),2,0.0993,inactive
IFT20 (GeneID 90410),3,0.307,inactive
SRFBP1 (GeneID 153443),1,-0.666,inactive
SRFBP1 (GeneID 153443),2,1.05,inactive
SRFBP1 (GeneID 153443),3,0.0134,inactive
MORN3 (GeneID 283385),1,-0.2,inactive
MORN3 (GeneID 283385),2,2.76,inactive
MORN3 (GeneID 283385),3,-0.857,inactive
AGBL1 (GeneID 123624),1,1.9,inactive
AGBL1 (GeneID 123624),2,3.74,inactive
AGBL1 (GeneID 123624),3,-0.91,inactive
GPR3 (GeneID 2827),1,-0.567,inactive
GPR3 (GeneID 2827),2,0.899,inactive
GPR3 (GeneID 2827),3,0.87,inactive
TEDDM1 (GeneID 127670),1,2.08,inactive
TEDDM1 (GeneID 127670),2,-0.38,inactive
TEDDM1 (GeneID 127670),3,4.14,inactive
ZNF641 (GeneID 121274),1,0.304,inactive
ZNF641 (GeneID 121274),2,0.674,inactive
ZNF641 (GeneID 121274),3,-0.995,inactive
TMEM247 (GeneID 388946),1,-0.275,inactive
TMEM247 (GeneID 388946),2,6.21,active
TMEM247 (GeneID 388946),3,-0.436,inactive
OXNAD1 (GeneID 92106),1,-0.0827,inactive
OXNAD1 (GeneID 92106),2,0.0306,inactive
OXNAD1 (GeneID 92106),3,-0.00741,inactive
IFITM1 (GeneID 8519),1,6.15,active
IFITM1 (GeneID 8519),2,-1.11,inactive
IFITM1 (GeneID 8519),3,3.44,inactive
ERCC5 (GeneID 2073),1,-0.641,inactive
ERCC5 (GeneID 2073),2,-1.05,inactive
ERCC5 (GeneID 2073),3,-0.00803,inactive
NFIB (GeneID 4781),1,-1.35,inactive
NFIB (GeneID 4781),2,0.856,inactive
NFIB (GeneID 4781),3,4.04,inactive
FZD9 (GeneID 8326),1,0.855,inactive
FZD9 (GeneID 8326),2,0.124,inactive
FZD9 (GeneID 8326),3,-0.424,inactive
PYCR2 (GeneID 29920),1,-0.588,inactive
PYCR2 (GeneID 29920),2,-1.05,inactive
PYCR2 (GeneID 29920),3,-0.736,inactive
IGFBP2 (GeneID 3485),1,-0.544,inactive
IGFBP2 (GeneID 3485),2,0.775,inactive
IGFBP2 (GeneID 3485),3,-0.725,inactive
EIF3J-DT (GeneID 645212),1,-0.184,inactive
EIF3J-DT (GeneID 645212),2,-0.361,inactive
EIF3J-DT (GeneID 645212),3,0.173,inactive
